PubChem BioAssay AID1259405, NCATS, 2018
Shown is an unselected part of about 50,000 reagents. About 4,000 of them (8%) were called active. 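Mouse siRNA library applied to hamster cells; one well for each siRNA.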 Reagents against one gene are numbered here.

Aim: 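Knock-downs that lift recombinant protein yield in hamster ovary cells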 (primary screen)
Cells: Chinese hamster CHO-K1 ovary cells with stable secreted eGFP expression
Reagent: single siRNA against mouse genes, 0.8 pmol siRNA per well (2 µl of 400 nM stock)
Time to read-out: 3 days
Measurement: 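Percent of the per-plate non-targeting control median for intracellular GFP per well by laser scanning cytometry and for cell viability by ATP luminescence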
Scale: GFP, % of control: higher = more GFP per well, higher productivity; viability (ATP), % of control: higher = more viable cells (more ATP)
Rule for the call: 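a knock-down is called active if GFP reaches 120% or more of non-targeting control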

gene	reagent no.	GFP, % of control	viability (ATP), % of control	activity call
Spaca9 (sperm acrosome associated 9)	1	87.9	97.5	inactive
Spaca9 (sperm acrosome associated 9)	2	128	98.1	active
Spaca9 (sperm acrosome associated 9)	3	68.1	98.5	inactive
Atp13a4 (ATPase type 13A4)	1	50	49.5	inactive
Atp13a4 (ATPase type 13A4)	2	74.3	100	inactive
Atp13a4 (ATPase type 13A4)	3	35.8	59.6	inactive
Scn3b (sodium channel, voltage-gated, type III, beta)	1	111	106	inactive
Scn3b (sodium channel, voltage-gated, type III, beta)	2	133	76.6	active
Scn3b (sodium channel, voltage-gated, type III, beta)	3	75	105	inactive
Mapk14 (mitogen-activated protein kinase 14)	1	103	86.8	inactive
Lca5 (Leber congenital amaurosis 5 (human))	1	88	101	inactive
Lca5 (Leber congenital amaurosis 5 (human))	2	107	68.4	inactive
Lca5 (Leber congenital amaurosis 5 (human))	3	101	91.3	inactive
Prox1 (prospero homeobox 1)	1	74.9	81.8	inactive
Prox1 (prospero homeobox 1)	2	113	92.4	inactive
Prox1 (prospero homeobox 1)	3	83.4	105	inactive
Hscb (HscB iron-sulfur cluster co-chaperone)	1	55.7	45	inactive
Hscb (HscB iron-sulfur cluster co-chaperone)	2	55.6	89.3	inactive
Hscb (HscB iron-sulfur cluster co-chaperone)	3	49.1	73.9	inactive
Fam120c (family with sequence similarity 120, member C)	1	69.4	58.4	inactive
Fam120c (family with sequence similarity 120, member C)	2	50.1	71.6	inactive
Fam120c (family with sequence similarity 120, member C)	3	103	103	inactive
Cebpg (CCAAT/enhancer binding protein gamma)	1	32.9	65	inactive
Cebpg (CCAAT/enhancer binding protein gamma)	2	46.4	50.2	inactive
Cebpg (CCAAT/enhancer binding protein gamma)	3	104	105	inactive
St6gal1 (beta galactoside alpha 2,6 sialyltransferase 1)	1	84.3	60.1	inactive
St6gal1 (beta galactoside alpha 2,6 sialyltransferase 1)	2	67.2	83.2	inactive
St6gal1 (beta galactoside alpha 2,6 sialyltransferase 1)	3	88.9	79.3	inactive
Zmat1 (zinc finger, matrin type 1)	1	38.2	37.8	inactive
Zmat1 (zinc finger, matrin type 1)	2	64.2	72	inactive
Zmat1 (zinc finger, matrin type 1)	3	62.9	92.8	inactive
9930022D16Rik (RIKEN cDNA 9930022D16 gene)	1	67.1	56.8	inactive
9930022D16Rik (RIKEN cDNA 9930022D16 gene)	2	61.4	52.8	inactive
9930022D16Rik (RIKEN cDNA 9930022D16 gene)	3	82.1	93.1	inactive
Polr1b (polymerase (RNA) I polypeptide B)	1	73.2	75	inactive
Polr1b (polymerase (RNA) I polypeptide B)	2	100	112	inactive
Mnt (max binding protein)	1	69.2	76.3	inactive
Mnt (max binding protein)	2	76.1	55.5	inactive
Mnt (max binding protein)	3	63	44.5	inactive
Spag17 (sperm associated antigen 17)	1	60.8	89.9	inactive
Spag17 (sperm associated antigen 17)	2	98.4	98	inactive
Spag17 (sperm associated antigen 17)	3	80.7	88.2	inactive

Active calls, of those listed so far:
gene	reagent no.	GFP, % of control	viability (ATP), % of control	activity call
Spaca9 (sperm acrosome associated 9)	2	128	98.1	active
Scn3b (sodium channel, voltage-gated, type III, beta)	2	133	76.6	active

The list goes on.
gene	reagent no.	GFP, % of control	viability (ATP), % of control	activity call
Ifna16 (interferon alpha 16)	1	50.5	56	inactive
Ifna16 (interferon alpha 16)	2	85.8	66	inactive
Ifna16 (interferon alpha 16)	3	86.3	81.2	inactive
Nudt19 (nudix hydrolase 19)	1	74.3	83.2	inactive
Nudt19 (nudix hydrolase 19)	2	68	61.5	inactive
Nudt19 (nudix hydrolase 19)	3	74.8	86.2	inactive
Or5al5 (olfactory receptor family 5 subfamily AL member 5)	1	120	77	inactive
Or5al5 (olfactory receptor family 5 subfamily AL member 5)	2	116	59.3	inactive
Or5al5 (olfactory receptor family 5 subfamily AL member 5)	3	78	73.8	inactive
Gpr141b (G protein-coupled receptor 141B)	1	87.8	86.6	inactive
Gpr141b (G protein-coupled receptor 141B)	2	106	89	inactive
Gpr141b (G protein-coupled receptor 141B)	3	108	84.5	inactive
Zfyve1 (zinc finger, FYVE domain containing 1)	1	51.2	50.6	inactive
Zfyve1 (zinc finger, FYVE domain containing 1)	2	71.5	71.3	inactive
Zfyve1 (zinc finger, FYVE domain containing 1)	3	66.9	83.1	inactive
Tmem132a (transmembrane protein 132A)	1	95.2	111	inactive
Tmem132a (transmembrane protein 132A)	2	53.1	49.7	inactive
Tmem132a (transmembrane protein 132A)	3	55.1	61.5	inactive
Lrfn4	1	102	98.5	inactive
Lrfn4	2	98.7	85.9	inactive
Lrfn4	3	72.3	54.7	inactive
Tpo (thyroid peroxidase)	1	94	117	inactive
Tpo (thyroid peroxidase)	2	76.2	78.3	inactive
Tpo (thyroid peroxidase)	3	108	110	inactive
Intu (inturned planar cell polarity protein)	1	70.7	71.6	inactive
Intu (inturned planar cell polarity protein)	2	66.8	69.1	inactive
Intu (inturned planar cell polarity protein)	3	79.5	111	inactive
Zfp959 (zinc finger protein 959)	1	53.9	78.7	inactive
Zfp959 (zinc finger protein 959)	2	48.2	49.1	inactive
Zfp959 (zinc finger protein 959)	3	47.6	73.2	inactive
Chodl (chondrolectin)	1	89.7	77	inactive
Chodl (chondrolectin)	2	57.6	64.2	inactive
Chodl (chondrolectin)	3	81.8	80.8	inactive
Tmc7 (transmembrane channel-like gene family 7)	1	64	47.5	inactive
Tmc7 (transmembrane channel-like gene family 7)	2	60.4	33.8	inactive
Tmc7 (transmembrane channel-like gene family 7)	3	70.6	111	inactive
Cntnap4 (contactin associated protein-like 4)	1	106	115	inactive
Cntnap4 (contactin associated protein-like 4)	2	131	92.8	active
Cntnap4 (contactin associated protein-like 4)	3	127	63.1	active
Ms4a13 (membrane-spanning 4-domains, subfamily A, member 13)	1	62.7	43.2	inactive
Ms4a13 (membrane-spanning 4-domains, subfamily A, member 13)	2	64.5	68.3	inactive
Ms4a13 (membrane-spanning 4-domains, subfamily A, member 13)	3	69.9	85	inactive
